Patent publication US20220381657A1, “METHOD FOR PREPARING BIOLOGICAL MATERIAL HAVING EXCELLENT LIGHT-TRANSMITTING PROPERTY” (RIKEN, priority 2016, published 2022)

Molecular target: EGFP (Aequorea victoria, UniProt P42212, F64L/H231L/S65T)
Format: biochemical
Conditions: stated in the description
Protocol: (FIG. 7). […] A mouse hemisphere was treated with use of each 10 wt % chemical solution at 37° C. for 3 days, and was washed with PBS. Subsequently, the mouse hemisphere was subjected to refractive index adjustment with CUBIC-2A.

## CC(C)(C)CC(C)(C)c1ccc(OCCOCC[N+](C)(C)Cc2ccccc2)cc1 [#0441, Benzethonium Chloride]
  retention of fluorescence of a fluorescent protein: allows fluorescence of a fluorescent protein to be retained
